Most values lie at the floor of the assay. Slopes are relative: functional sequences can read slightly below zero.

In this series the test system is Saccharomyces cerevisiae PS128 hsf1 delta, HSF1(1-493) fusion. Nature of the series: growth estimate (transactivation domain function in HSF1 fusion, heat-shock survival) (a.u. (slope of normalised read count over time)); higher = stronger growth at 37°C, i.e. more transactivation activity. Particulars: library: random library. Here is the method:
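Random 60-nt DNA library encoding peptides of up to 20 aa, fused to the C-terminus of yeast HSF1 residues 1-493 (C-terminal TAD deleted) and expressed from the native HSF1 promoter on a CEN plasmid in hsf1-deleted S. cerevisiae PS128. Cells were selected at 37°C on -trp 5-FOA plates for 0, 2, 4, 6 and 8 days and amplicons were sequenced. Growth estimate is the slope of a robust linear fit of total-sum-normalised read counts (normalised to the first time point) over time, using at least 2 replicates. Sequences are classed functional (TAD activity) above a threshold of -0.13, set from stop-codon control sequences.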
For the substance REPWFYITLYIYRYAT, the growth estimate is < -0.25.

As for QYRCHLDIDGKAPLNGADPQ, the growth estimate was < -0.25.

With VWSPGGGESCRAPNGTFFVD, the growth estimate was < -0.25.

Take GRVRDTTWTSAFLSCAPSVT: the growth estimate is < -0.25.

As for DTTSGKNADDMTCATERACG, the growth estimate is < -0.25.

For PERTMTTG, the growth estimate is < -0.25.

As to RCSRARSPFISKPC, the growth estimate was < -0.25.

Consider YYAP, for which the growth estimate is < -0.25.

As for RCALQVCPLSQGSARSYPAP, the growth estimate was < -0.25.

On to VEAYGHSIVCKLGVCWGRVF, for which the growth estimate was < -0.25.

Turning to TSAIKVRTERQGAALETTMN, the growth estimate was < -0.25.

In the case of RRSNY, the growth estimate is < -0.25.

With SAVVARFVTRHQLLTHCTD, the growth estimate was < -0.25.

ITVLVSAVIPRLQKDTVRRL: the growth estimate is < -0.25.

For LPVFDLGRSLGCGPYSRPAC, the growth estimate is < -0.25.

As to SGWS, the growth estimate is < -0.25.

As to FSVCRDESTSRSVL, the growth estimate was < -0.25.

For the substance IAIGLRLGVTTSKFTSYCGD, the growth estimate was < -0.25.

As for TPVRKDAIGCVRSRSARRPC, the growth estimate was < -0.25.

Turning to VVKDGGDKQDRHRFHAPVT, the growth estimate is < -0.25.

Regarding NWRLRCILSQGGL, the growth estimate was < -0.25.

For the substance DWGTVVV, the growth estimate was < -0.25.

Regarding SFRTQIVFKGWFLLGAPKRG, the growth estimate is < -0.25.

Turning to GPKPSGEGMKSAGIAVSLES, the growth estimate was < -0.25.

For the substance LITKQL, the growth estimate is < -0.25.

In the case of LNPRSECAEPE, the growth estimate was < -0.25.

As to HRTVQMGSTWQRHAA, the growth estimate was 0.0075.

As to TVISKCSSTAPQSP, the growth estimate was < -0.25.

Regarding TTNVFNCNSPEFGAAERLVS, the growth estimate is < -0.25.

With NRWLRVQGKIKRPCIGELCR, the growth estimate was < -0.25.

In the case of VLICNSAFFLPTFNAISAYI, the growth estimate is < -0.25.

YECKSV: the growth estimate was < -0.25.

For the substance CTPLVPTVP, the growth estimate was < -0.25.

GYYGLLRGFEPLLSTTSPVS: the growth estimate is < -0.25.

Regarding MRMFPPMN, the growth estimate is < -0.25.

As for LTSLVHK, the growth estimate is < -0.25.

As for GNHRQVPTRVSKCAGLSGGL, the growth estimate is < -0.25.

Turning to GGSSWCGVYESACRTLQQHP, the growth estimate is < -0.25.

For LGIATTHSYGVVG, the growth estimate was < -0.25.

As to QLSNRVGGRAAHNLIWIYSV, the growth estimate was < -0.25.

For SVPLWPAHT, the growth estimate is < -0.25.

For DSVGPTVRVCNRSLRAWSWI, the growth estimate is < -0.25.

Regarding VPGAQHLPCSGRCGRRSEN, the growth estimate was < -0.25.

Consider CLYSGLLPVGAV, for which the growth estimate was < -0.25.

As for AKNSASGLDVLVRDTQRGYS, the growth estimate is < -0.25.

RSRYITVGGAWAELPQLPLR: the growth estimate was < -0.25.

RVSSGEDAFPLRILRPC: the growth estimate is < -0.253.

Take WYTRLFILR: the growth estimate is < -0.25.

RVGAVSPTLHTRTRFRDSAT: the growth estimate was < -0.25.

Consider EEKHILATMDRT, for which the growth estimate is < -0.25.

As to LWRYIWQLSAYPGETNLQYF, the growth estimate is < -0.25.

On to LVDAVRYRAQR, for which the growth estimate is -0.246.

Consider PNVSGRVPGGKGRYIGQYSK, for which the growth estimate is < -0.25.

With CSLSNDDVRRRSLLFSWGQR, the growth estimate is < -0.25.

For the substance GPVSGGSPRGFVS, the growth estimate was < -0.25.

Consider PSVSSSDAGIPRASGSRARN, for which the growth estimate is -0.228.

With SPVPPSPCAVCACAQMLTTL, the growth estimate was < -0.25.

On to AWSSVGKVY, for which the growth estimate is < -0.25.

Consider RRTRRCRVSMTMESDHGRFL, for which the growth estimate is < -0.25.

KAPLNERLWSTWCAASRVGR: the growth estimate was < -0.25.

As for GDVHQDLMSFYTANKAALAH, the growth estimate is < -0.25.

Turning to ASKVALTKSFGIRTGPSHCW, the growth estimate was < -0.25.

As for ELKASVLHRLTLGFGSKDSL, the growth estimate was < -0.25.

LPLLRNAALGARVGCMVWVM: the growth estimate was -0.246.

Turning to KLHVCNYV, the growth estimate was < -0.25.

For QGVDGNPQKFGVECRTTMSS, the growth estimate was < -0.25.

Take PVCPWSPEPICDEHRSTRLV: the growth estimate was < -0.25.

As for AERTRKVIRASRTDGRRKRE, the growth estimate is < -0.25.

Consider SWSFRSVPGRVSA, for which the growth estimate is 0.0803.

Regarding SGR, the growth estimate is < -0.25.

On to LPGWLCQLQWDLAVRRR, for which the growth estimate was < -0.25.

On to SLQTLLNPSLNVLRFRVISH, for which the growth estimate is < -0.25.

With SCGQIWYKYLAALGLQWAIE, the growth estimate was < -0.25.

In the case of APVQGGNGHVTLP, the growth estimate was < -0.25.

Take KKLRDTDAGTKKAPMTHYDA: the growth estimate is < -0.25.

Take SSDLRQSARARPVGSFLRRR: the growth estimate was -0.197.

For the substance VDWM, the growth estimate was -0.231.

In the case of IVGTRRSLVRDLCTHVVGDT, the growth estimate is -0.229.

Consider GDHDILNWATNQAALCSPRT, for which the growth estimate is 0.0176.

As for LSRTFIGRSVYSSPMRRGL, the growth estimate is < -0.25.

As to SIESLTCAT, the growth estimate is < -0.25.

For SVEG, the growth estimate was < -0.25.

Regarding SEHYEL, the growth estimate was < -0.25.

For APVSSLAVLSSSPRGSTAST, the growth estimate is < -0.25.

For CSIPYQELSCGGR, the growth estimate is < -0.25.

For HMKQIVKSPRKPSEGKTARH, the growth estimate is < -0.25.

As to RHLLYPARHQGIVLRTRTAH, the growth estimate was < -0.25.

For the substance WSHRVPVCSDDFAV, the growth estimate was < -0.25.

As to VGIPTSHGALRSISASVHKY, the growth estimate was < -0.25.

On to VMYFT, for which the growth estimate was -0.0082.

As to YSDWIEVRD, the growth estimate was < -0.25.

DLA: the growth estimate was < -0.25.

For LLSVPTGLQKVITCGS, the growth estimate is < -0.25.

Turning to APHAPKFLREADSIHSI, the growth estimate was < -0.25.

Take DTVSRRFEGFGYGFLAQIPT: the growth estimate was < -0.25.

With FVSQASFVRAGSPGSG, the growth estimate was < -0.25.

As to TYCGWGSAISPTGSESATLG, the growth estimate was < -0.25.

Take GIKIGLTIWLRGGDHYALPA: the growth estimate is < -0.25.

Consider GVVLINSKIRAVTCVV, for which the growth estimate is < -0.25.

On to WRGPFQLKDSNICAGHVGAL, for which the growth estimate is -0.195.

On to YNRISDKGPMGRPTWSPEL, for which the growth estimate is < -0.25.

For SRSVVLLKYLNAGLFPSLIR, the growth estimate is < -0.25.

In the case of SCQAGCLAP, the growth estimate is < -0.25.

Take AANARACVVHN: the growth estimate is < -0.25.

On to CVNLVRGHRRPLWQICTFNL, for which the growth estimate is < -0.25.

For the substance VRWGLGRRKAGLAFERFVGL, the growth estimate was -0.228.

For the substance SWYRL, the growth estimate is < -0.25.

Turning to LYNAVGQYRLM, the growth estimate is < -0.25.

On to NTGEPSMEVKSLVGPTVNGC, for which the growth estimate was < -0.25.

Regarding GIAPTEIFDKGVRDIRVFYG, the growth estimate is < -0.25.

CSELAGATSGKSDDL: the growth estimate is < -0.25.

Take KRLIPGPFSGTACLEASLWV: the growth estimate was < -0.25.

Turning to WARGGGGL, the growth estimate is < -0.25.

With VPHSTTGQDLPSNSMRLTIG, the growth estimate is < -0.25.

TANAMHGPILL: the growth estimate was < -0.25.

For the substance GASPLVVEGDHIMGSCEISR, the growth estimate was < -0.25.

On to KIHRSEQVKVVQEAFTQDPT, for which the growth estimate is < -0.25.

Turning to SCTAQLHTWLFVESRCVGLP, the growth estimate was < -0.25.

Take LSCRLTKSARPAG: the growth estimate was < -0.25.

Turning to QSRSRFECASA, the growth estimate is < -0.25.

Regarding RYEMRTSNRQRCGCTRGLHW, the growth estimate is < -0.25.

Turning to WRRWISDSPTSPRRTR, the growth estimate was < -0.25.

For SQCWLSRASLMYSLDRAEEK, the growth estimate is < -0.25.

Take PLWGMGNL: the growth estimate was < -0.25.

As for KTEAVS, the growth estimate was < -0.25.

In the case of SVSALGADTASRNIRTVILT, the growth estimate was < -0.25.

Take SSHRRAAVRPSVCLADVGKI: the growth estimate was < -0.25.

For PRRAKVDMQHIMNLCCGPTH, the growth estimate is < -0.25.

Take VISEVLTKEKGQVQIV: the growth estimate was < -0.25.

On to IAEALV, for which the growth estimate is < -0.25.

Regarding NFINSAS, the growth estimate was < -0.25.

As for SHNTHRQILS, the growth estimate was < -0.25.

For the substance CWGKTSGSLK, the growth estimate is < -0.25.

VEPVLNLLGTPSSLREWHNM: the growth estimate is < -0.25.

With TSRLRTL, the growth estimate was < -0.25.

FARNGPVTRSSIRAASVRRE: the growth estimate was < -0.25.

Turning to QGVRT, the growth estimate was < -0.25.

In the case of PRVARCQRACVPALRNLKVW, the growth estimate is < -0.25.

In the case of IKRAI, the growth estimate was < -0.25.

Regarding EMSISVGESYRCDSCVTWDG, the growth estimate was < -0.25.

For the substance LRHGEVCNYRGSC, the growth estimate was < -0.25.

Regarding GRHPVRGVCLDYSLL, the growth estimate is < -0.25.

For the substance SLWPF, the growth estimate is < -0.25.

As for PQALTNG, the growth estimate is -0.248.

For the substance DCPRL, the growth estimate is < -0.25.

For the substance YDKPEELP, the growth estimate was < -0.25.

As for GSNMDIGQIVRIE, the growth estimate was < -0.25.

With VLSE, the growth estimate is < -0.25.

On to LVDLGRAERALSSITSTFTC, for which the growth estimate was < -0.25.

Regarding GGPWSYPTF, the growth estimate was < -0.25.

The values above are taken from the supplement of paper PMC5949888.
